The supplement of paper PMC8007513
This is one part of the list. Repeats are few or missing, and single values can be far off.

Each compound was assayed on Saccharomyces cerevisiae BY4743 (assay: growth (OD600) with compound + IPBC relative to untreated control; higher = less growth inhibition). Conditions: compound concentration: 133 uM; IPBC concentration: 0.5 ug/ml; 20 h.
Method: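 NMCCC compounds (133 uM) combined with IPBC (0.5 ug/ml) against Saccharomyces cerevisiae BY4743 in YPD, 96-well plates. Growth was read as OD600 at 20 h and expressed as % of the untreated control. Single pass.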

Compound	growth
CCSc1nnc2c(=O)[nH]c(=O)[nH]c2n1 + CCCCNC(=O)OCC#CI [3-iodo-2-propynyl butylcarbamate (IPBC)]	90.8%
CCc1nnc(NC(=O)CC2(CC(=O)N3CCOCC3)CCCC2)s1 + CCCCNC(=O)OCC#CI [3-iodo-2-propynyl butylcarbamate (IPBC)]	104%
CCC(C)NC(=O)c1c(-c2ccccc2)nnc2ccc(C)cc12 (centres undefined) + CCCCNC(=O)OCC#CI [3-iodo-2-propynyl butylcarbamate (IPBC)]	116%
CCOc1ccc2nc(SC3CCOC3=O)sc2c1 (centres undefined) + CCCCNC(=O)OCC#CI [3-iodo-2-propynyl butylcarbamate (IPBC)]	91%
COc1ccc(-c2cc(C(=O)NCc3nccn3C)on2)cc1 + CCCCNC(=O)OCC#CI [3-iodo-2-propynyl butylcarbamate (IPBC)]	85.3%
CCN1CCC(N(Cc2cccs2)C(=O)Nc2cccc(C)c2C)CC1 + CCCCNC(=O)OCC#CI [3-iodo-2-propynyl butylcarbamate (IPBC)]	98.9%
COc1ccc(F)cc1-c1csc(Cc2csc(C)n2)n1 + CCCCNC(=O)OCC#CI [3-iodo-2-propynyl butylcarbamate (IPBC)]	97.7%
COc1cc(OC)c(NC(=O)CCNS(=O)(=O)c2ccc3c(c2)CC(C)N3C(C)=O)cc1Cl (centres undefined) + CCCCNC(=O)OCC#CI [3-iodo-2-propynyl butylcarbamate (IPBC)]	105%
Cc1nc(SC(C)C(=O)N2CCNC2=O)c(C#N)c(C)c1C (centres undefined) + CCCCNC(=O)OCC#CI [3-iodo-2-propynyl butylcarbamate (IPBC)]	86.5%
Oc1ccc(Cl)cc1-c1cc(-c2ccco2)[nH]n1 + CCCCNC(=O)OCC#CI [3-iodo-2-propynyl butylcarbamate (IPBC)]	3.22%
CC(C)CCNC(=O)Cn1c(=O)[nH]c2c(-c3ccccc3F)c[nH]c2c1=O + CCCCNC(=O)OCC#CI [3-iodo-2-propynyl butylcarbamate (IPBC)]	80.2%
CCOC(=O)c1c(NC(=O)c2ccccc2)sc(C(C)=O)c1-c1ccccc1 + CCCCNC(=O)OCC#CI [3-iodo-2-propynyl butylcarbamate (IPBC)]	85%
Cc1csc(SCC(=O)N(C)Cc2ccc(C)o2)n1 + CCCCNC(=O)OCC#CI [3-iodo-2-propynyl butylcarbamate (IPBC)]	104%
CCC1Sc2ccc(S(=O)(=O)CCC(=O)Nc3ccc(C(C)=O)cc3)cc2NC1=O (centres undefined) + CCCCNC(=O)OCC#CI [3-iodo-2-propynyl butylcarbamate (IPBC)]	106%
COC(=O)c1cc(COC(=O)C2(c3ccccc3F)CCCC2)oc1C + CCCCNC(=O)OCC#CI [3-iodo-2-propynyl butylcarbamate (IPBC)]	94.9%
CC/1=C/N2C(=O)\C=C(NC3CC(C)(C)NC(C)(C)C3)/N=C2/C=C1 + CCCCNC(=O)OCC#CI [3-iodo-2-propynyl butylcarbamate (IPBC)]	99.6%
CC1(C)CC(NC(=O)CNC(=O)Cc2nnc(O)c3ccccc23)CC(C)(C)N1 + CCCCNC(=O)OCC#CI [3-iodo-2-propynyl butylcarbamate (IPBC)]	107%
CCCC/1=C/C(=O)N/2\N=C(/SC2=N1)N(C)CC(=O)NCC3=CC(=CC=C3OC)Br + CCCCNC(=O)OCC#CI [3-iodo-2-propynyl butylcarbamate (IPBC)]	97.6%
COc1cc(NC(=O)c2cc(S(=O)(=O)N3CCCC3)c(Cl)cc2Cl)ccc1OC(F)F + CCCCNC(=O)OCC#CI [3-iodo-2-propynyl butylcarbamate (IPBC)]	76%
Cc1ccc(S(=O)(=O)N(Cc2nc(-c3ccccc3)no2)C(C)C)cc1 + CCCCNC(=O)OCC#CI [3-iodo-2-propynyl butylcarbamate (IPBC)]	75%

Part of the list above, in markdown:

| Compound | growth |
| --- | --- |
| Oc1ccc(Cl)cc1-c1cc(-c2ccco2)[nH]n1 + CCCCNC(=O)OCC#CI [3-iodo-2-propynyl butylcarbamate (IPBC)] | 3.22% |
| CC(C)CCNC(=O)Cn1c(=O)[nH]c2c(-c3ccccc3F)c[nH]c2c1=O + CCCCNC(=O)OCC#CI [3-iodo-2-propynyl butylcarbamate (IPBC)] | 80.2% |
| CCOC(=O)c1c(NC(=O)c2ccccc2)sc(C(C)=O)c1-c1ccccc1 + CCCCNC(=O)OCC#CI [3-iodo-2-propynyl butylcarbamate (IPBC)] | 85% |

(further entries)

Compound	growth
COC1=CC(=CC(=C1OC)Br)C\2\C(=C(\N)O\C3=C2C(=O)CCC3)C#N (centres undefined) + CCCCNC(=O)OCC#CI [3-iodo-2-propynyl butylcarbamate (IPBC)]	87.3%
CCOC(=O)Cn1c2ccc(F)cc2c2nc(C)sc21 + CCCCNC(=O)OCC#CI [3-iodo-2-propynyl butylcarbamate (IPBC)]	79.9%
Cc1noc(C)c1C(=O)OCC(=O)NCC1CCCO1 (centres undefined) + CCCCNC(=O)OCC#CI [3-iodo-2-propynyl butylcarbamate (IPBC)]	89.8%
CCN(CC(=O)Nc1sccc1C#N)Cc1ccc2c(c1)OCO2 + CCCCNC(=O)OCC#CI [3-iodo-2-propynyl butylcarbamate (IPBC)]	94.6%
COc1ccc(-c2ccc3c(N)c(C(=O)NC(C)C)sc3n2)cc1OC + CCCCNC(=O)OCC#CI [3-iodo-2-propynyl butylcarbamate (IPBC)]	98%
CCN(CC)[S](=O)(=O)C1=CC=C(NC(=O)N\C2=C\N(C)C(=O)C3=CC=CC=C23)C=C1 + CCCCNC(=O)OCC#CI [3-iodo-2-propynyl butylcarbamate (IPBC)]	106%
CCc1ccc(N2C(=O)CN(S(C)(=O)=O)CC2(C)C(=O)NCc2ccccc2)cc1 (centres undefined) + CCCCNC(=O)OCC#CI [3-iodo-2-propynyl butylcarbamate (IPBC)]	99.8%
COC(=O)COc1ccc(NC(=O)c2ccc(O)nn2)cc1 + CCCCNC(=O)OCC#CI [3-iodo-2-propynyl butylcarbamate (IPBC)]	104%
CCC(CC)n1nc(O)c2c(C)cc(C)nc21 + CCCCNC(=O)OCC#CI [3-iodo-2-propynyl butylcarbamate (IPBC)]	104%
Cc1ccc(OCC(=O)NCCc2ccc(F)cc2)c2c1C(C)CC2=O (centres undefined) + CCCCNC(=O)OCC#CI [3-iodo-2-propynyl butylcarbamate (IPBC)]	89.9%
COc1ccc(C)cc1NC(=O)Nc1nnc(N(CC(C)C)CC(C)C)s1 + CCCCNC(=O)OCC#CI [3-iodo-2-propynyl butylcarbamate (IPBC)]	108%
Cc1cc(C(=O)COc2ccc(NC(=O)c3ccco3)cc2)c(C)n1C + CCCCNC(=O)OCC#CI [3-iodo-2-propynyl butylcarbamate (IPBC)]	86.5%
COC(=O)c1c(C)[nH]c(C(=O)N2CCN(S(C)(=O)=O)CC2)c1C + CCCCNC(=O)OCC#CI [3-iodo-2-propynyl butylcarbamate (IPBC)]	102%
Cc1nc(-c2ccccc2)sc1C(=O)OC(C)C(=O)N1CCNC1=O (centres undefined) + CCCCNC(=O)OCC#CI [3-iodo-2-propynyl butylcarbamate (IPBC)]	91.4%
CSc1nncc(-c2ccc(Br)cc2)n1 + CCCCNC(=O)OCC#CI [3-iodo-2-propynyl butylcarbamate (IPBC)]	88.9%
CCOC(=O)Cc1ccc(NC(=O)NCc2c(C)nn(CC)c2C)cc1 + CCCCNC(=O)OCC#CI [3-iodo-2-propynyl butylcarbamate (IPBC)]	100%
COc1ccccc1-c1noc(CSc2n[nH]c(C(C)C)n2)n1 + CCCCNC(=O)OCC#CI [3-iodo-2-propynyl butylcarbamate (IPBC)]	111%
COC(=O)c1ccccc1S(=O)(=O)NCc1nc2nc(C)cc(C)n2n1 + CCCCNC(=O)OCC#CI [3-iodo-2-propynyl butylcarbamate (IPBC)]	98.7%
COc1ccc(C)cc1NC(=O)CC(C)(C(=O)O)c1ccccc1 (centres undefined) + CCCCNC(=O)OCC#CI [3-iodo-2-propynyl butylcarbamate (IPBC)]	105%
